# Record: PubChem BioAssay AID686943 (Drosophila RNAi Screening Center, 2013)
# Screen: 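Fly genes whose loss alters ERK activation after insulin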 (primary screen)
# System: Drosophila S2R+ haemocyte-like cells expressing YFP-tagged ERK (Rolled)
# Reagent: long dsRNA against Drosophila genes
# Conditions: insulin stimulation versus unstimulated cells; dose and duration not given
# Measurement: 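Per-plate z-scores of phospho-ERK immunostaining normalised to YFP-tagged ERK, measured with and without insulin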
# Reading the numbers: replicate 1, z-score of dpERK with insulin and replicate 2, z-score of dpERK with insulin: higher = more active ERK per ERK-YFP after insulin; replicate 1, z-score of dpERK under basal conditions: higher = more basal active ERK per ERK-YFP; replicate 1, z-score of ERK-YFP with insulin: higher = more YFP-tagged ERK signal
# The screen tested about 23,000 reagents; below is a random part of those that have a named target and a result. 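Extra replicates exist only for a retested subset of genes; insulin dose and duration not given; both raised and lowered dpERK matter.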 The numbers tell different reagents against one gene apart. A plus sign joins genes that one reagent is predicted to hit. No sequences are given here. Not given: the amount of reagent, the time to read-out.
predicted target,reagent,"replicate 1, z-score of dpERK with insulin","replicate 2, z-score of dpERK with insulin","replicate 1, z-score of dpERK under basal conditions","replicate 1, z-score of ERK-YFP with insulin"
S6kII,1,0.54,1.12,2.9,0.14
CG12479,1,-0.96,-1.03,0.75,0.32
Dus1,1,-0.05,-0.66,0.14,-0.34
CG32987,1,-2.27,-0.74,0.36,0.97
CG32409,1,0.23,0.53,0.98,-0.26
kat80,1,-0.18,0.17,1.56,0.2
kat80,2,-0.41,-0.59,0.97,1.12
Tbh,1,0.23,0.65,0.65,0.67
CG43277,1,0.57,-0.4,-0.66,0.28
Pask,1,-0.45,0.95,-0.44,0.97
CG7379,1,0.75,0.13,-1.07,0.72
Tep2,1,-0.83,-0.42,1.51,1.48
Tep2,2,-0.45,0.31,0.48,1.03
spdo,1,0.66,0.2,0.15,-0.85
Scgalpha,1,0.05,0.37,-0.07,0.13
CG7080,1,-0.39,-0.18,-0.84,0.46
Tsp42Eq,1,0.25,0.41,0.11,-0.23
Obp58c,1,-0.46,-0.42,-1.02,-0.06
CROT,1,-1,0.22,-0.04,-0.09
CROT,2,-0.78,0,-0.84,0.45

Single entries from the entries so far:
Entry for Tsp42Eq under “replicate 1, z-score of dpERK under basal conditions”: 0.11
kat80 #1, replicate 1, z-score of dpERK under basal conditions: 1.56
Pask, replicate 1, z-score of dpERK under basal conditions → -0.44
Result of CROT #2 under “replicate 1, z-score of dpERK with insulin”: -0.78
Entry for CG7080 under “replicate 1, z-score of dpERK with insulin”: -0.39
For “replicate 1, z-score of ERK-YFP with insulin”, CG12479 reads 0.32

Additional entries:
predicted target,reagent,"replicate 1, z-score of dpERK with insulin","replicate 2, z-score of dpERK with insulin","replicate 1, z-score of dpERK under basal conditions","replicate 1, z-score of ERK-YFP with insulin"
lncRNA:CR43337,1,1.07,2.1,0.3,-0.3
obst-H,1,2.27,0.14,0.41,-1.16
obst-H,2,0.67,-0.34,-0.95,0.29
fal,1,0.07,-0.12,-3.18,-0.31
CdGAPr,1,2,0.03,0.16,-0.57
CG13280,1,0.2,0.67,-0.47,-0.14
Scr,1,-2.26,-3.43,-3.34,-2.8
CG14966,1,0.13,0.46,0.15,0.49
Spn55B,1,-0.41,0.3,0.62,-1.04
Spn55B,2,0.46,-3.28,0.72,0.04
Vps37B,1,-0.98,0.63,0.15,0.3
Pat1,1,0.14,0.51,0.92,0.52
Nep2,1,0.84,0.07,1.01,0.65
Nep2,2,1.12,0.84,-0.3,-1.02
Cht5,1,0.58,-0.07,-0.49,0.46
Mgat4a,1,1.01,0.28,0.83,0.29
Mgat4a,2,-0.54,0.03,0.04,0.27
Irc,1,0.46,0.16,-0.63,-0.28
SCAR,1,-0.72,-1.22,0.3,-0.11
unk,1,-0.25,-0.13,-0.44,1.68
CG15252,1,-1.11,-0.11,-0.42,0.95
Cyp313a3,1,0.47,0.28,-0.71,0.13
CG7943,1,0.94,-0.07,-0.87,-0.88
CG11626,1,-0.13,-0.13,-0.49,-0.61
CG7031,1,-0.49,-1.88,-2.79,-2.03
Cib2,1,0.04,-1.22,-1.19,-0.63
gwl,1,-0.14,0.41,-0.37,0.06
CG33325,1,-0.56,0.34,0.91,1.06
sens,1,-5.63,-3.97,-1.91,-2.2
CG8204,1,0.52,0.84,0.07,-0.2
SA2,1,-0.39,-0.31,-0.76,0.2
CG11147,1,0.38,-0.52,-1.46,-0.25
ND2 (retired record),1,0.6,-0.02,0.3,-0.32
NHP2,1,0.02,0.29,0.2,1.09
TfIIFalpha,1,2.98,3.84,-0.16,-0.23
asRNA:CR43430 + hts,1,0.36,1.04,0.94,-0.17
salm,1,-0.09,0.3,1.34,-0.93
